Measured values: publication PMC5290147
Results are given in words; binding and its absence hold for the method and conditions named. Binding seen in cells or lysates may run through a third protein. Binding calls can cover weak binding; strength is not graded here.

Molecular target: T1, β3 wild-type cytoplasmic tail peptide
T1 sequence (peptide, desthiobiotinylated (position not stated); free C-terminus (-OH)): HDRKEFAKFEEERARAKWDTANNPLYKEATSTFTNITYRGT
Assay: pull-down; desthiobiotinylated peptides immobilised on Dynabeads MyOne Streptavidin C1; 1 mg pKO-αV/β1 fibroblast lysate, overnight at 4 °C; western blot; only the target purified

## talin
  binding: binds
